Data as given in PubChem BioAssay AID1259308 (NCATS, 2017).
In all, the deposit lists about 59,000 reagents; shown is a part drawn at random. Over the whole deposit, about 1,510 (2.6%) were called active. 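Calls use total luciferase alone and ignore viability, so some active siRNAs may act by altering cell number.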 The numbers tell different reagents against one gene apart. Not all columns of the deposit are shown.

Aim: 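Knock-downs that increase output of a recombinant reporter protein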 (primary screen)
Cells: human HEK293 embryonic kidney cells stably expressing firefly luciferase (HEK-CMV-Luc2-Hygro)
Knock-down reagent: single siRNA against human genes, 0.8 pmol siRNA per well
Time to read-out: 72 h
Measured: 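Reporter luminescence and viable-cell signal on separate replicate plates, given as percent of non-targeting control and median/MAD z-scores, plus per-cell luciferase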
Scale: total luciferase, z-score and total luciferase, % of control: higher = more reporter protein produced
Call rule: 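An siRNA counts as active if its total luciferase robust z-score exceeds 3; genes with two or more such siRNAs out of three were retested with fresh siRNAs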
Meaning of the calls: active = raised luciferase; inactive = no rise

FN1 (fibronectin 1) #1 showed total luciferase, z-score 1.65; total luciferase, % of control 115; inactive.
Against FN1 (fibronectin 1) #2, the values are total luciferase, z-score -0.0316; total luciferase, % of control 81.3; inactive.
Against FN1 (fibronectin 1) #3, the values are total luciferase, z-score 0.202; total luciferase, % of control 85.9; inactive.
Against AQP8 (aquaporin 8) #1 the deposit lists total luciferase, z-score -0.176; total luciferase, % of control 78.4; inactive.
Against AQP8 (aquaporin 8) #2, the entry reads total luciferase, z-score -2.18; total luciferase, % of control 38.6; inactive.
AQP8 (aquaporin 8) #3 gave total luciferase, z-score -0.751; total luciferase, % of control 67; inactive.
CCIN (calicin) #1 scored total luciferase, z-score -0.514; total luciferase, % of control 71.7; inactive.
Depletion of CCIN (calicin) #2 resulted in: total luciferase, z-score -0.906; total luciferase, % of control 63.9; inactive.
With knock-down of CCIN (calicin) #3, the record shows total luciferase, z-score 3.68; total luciferase, % of control 155; active.
OR8K1 (olfactory receptor family 8 subfamily K member 1) #1 scored total luciferase, z-score -0.204; total luciferase, % of control 77.8; inactive.
With knock-down of OR8K1 (olfactory receptor family 8 subfamily K member 1) #2, the screen gave total luciferase, z-score -0.185; total luciferase, % of control 78.2; inactive.
For OR8K1 (olfactory receptor family 8 subfamily K member 1) #3, the values are total luciferase, z-score 0.953; total luciferase, % of control 101; inactive.

Records above whose target name starts with A or a (3):
AQP8 (aquaporin 8) #1 | total luciferase, z-score: -0.176; total luciferase, % of control: 78.4; outcome: inactive
AQP8 (aquaporin 8) #2 | total luciferase, z-score: -2.18; total luciferase, % of control: 38.6; outcome: inactive
AQP8 (aquaporin 8) #3 | total luciferase, z-score: -0.751; total luciferase, % of control: 67; outcome: inactive

The listing continues:
Against MAGEA6 (MAGE family member A6) #1, the values are total luciferase, z-score -0.392; total luciferase, % of control 74.1; inactive.
With knock-down of MAGEA6 (MAGE family member A6) #2, the record shows total luciferase, z-score 2.62; total luciferase, % of control 134; inactive.
For MAGEA6 (MAGE family member A6) #3, the values are total luciferase, z-score -0.358; total luciferase, % of control 74.8; inactive.
Against SELL (selectin L) #1, the entry reads total luciferase, z-score 0.00604; total luciferase, % of control 82; inactive.
SELL (selectin L) #2 gave total luciferase, z-score -0.831; total luciferase, % of control 65.4; inactive.
After knock-down of SELL (selectin L) #3, the screen gave total luciferase, z-score -0.187; total luciferase, % of control 78.2; inactive.
After knock-down of FABP6 (fatty acid binding protein 6) #1, the screen gave total luciferase, z-score 0.0773; total luciferase, % of control 83.4; inactive.
For FABP6 (fatty acid binding protein 6) #2, the values are total luciferase, z-score -0.453; total luciferase, % of control 72.9; inactive.
After knock-down of FABP6 (fatty acid binding protein 6) #3, the screen gave total luciferase, z-score -0.0742; total luciferase, % of control 80.4; inactive.
